From patent US7317003B2, “Small peptides having anti-angiogenic and endothelial cell inhibition activity” (National University of Singapore, priority 1998, dated 2008)
Part of at least one peptide drawing is inferred or uncertain, most often the ends. Where a SMILES comes first, the peptide text is derived from it.

What was measured:
[1] = system: bovine aorta endothelial cell (BAE); format: cell-based
Experimental: The peptides were tested in an in vitro bovine aorta endothelial cell (BAE) proliferation assay for their ability to inhibit BAE cell proliferation. Cells were plated into 24-well culture plates at 1.25×10^4 cells/well in complete SFM-endothelial medium (Gibco, USA). After 24 h, the medium was removed and various amounts of peptides were added into the wells in 0.5 ml of SFM-endothelial medium without bFGF. After 30 minutes incubation, bFGF was added into each well at a final concentration of 1 ng/ml together with another 0.5 ml of SFM-endothelial medium. Seventy-two hours later, cells were trypsinized and counted using a hemocytometer. Commercial E. coli recombinant human angiostatin (1 μM) was used as a control in the experiments.
Peptides were tested in an in vitro bovine aorta endothelial cell (BAE) proliferation assay for their ability to inhibit BAE cell proliferation. Cells were plated into 24-well culture plates at the number of 1.25×10^4/well in complete SFM-endothelial media (Gibco, USA). After 24 hours, the medium was removed and various amounts of peptides were added into the wells in 0.5 ml of SFM-endothelial medium without bFGF. After 30 minutes incubation, bFGF was added into each well at a final concentration of 1 ng/ml together with another 0.5 ml of SFM-endothelial medium. Seventy-two hours later, cells were trypsinized and counted using a hemocytometer. […]

[2] = system: chick embryo chorioallantoic membrane (CAM); test: chick embryo chorioallantoic membrane (CAM) in vivo angiogenesis assay
Experimental: Since peptides Angio-2, Angio-3 and Angio-4 all inhibited BAE cell proliferation, they were also tested in the chick embryo chorioallantoic membrane (CAM) in vivo angiogenesis assay (7). In this assay, the peptides are coated onto 2-3 mm glass squares cut from microscope cover slips. […] Peptide Angio-3 reduced microvessel density at the very low dose of 12 pg/cover slip (the lowest dose tested, comparing to a PBS control). As a positive control, recombinant angiostatin at the dose of 100 ug/cover slip was tested in the same experiment. The amount of inhibition (judging from the extent of reduction in microvessel density) from 100 ug recombinant angiostatin is equivalent to 1.2 ug of Angio-3 peptide.

Question: Which “potency relative to angiostatin protein in inhibiting BAE cell proliferation” value [1] does the source give for `C[C@@H](O)[C@H](N)C(=O)N1CCC[C@H]1C(=O)N[C@@H](Cc1c[nH]cn1)C(=O)N[C@H](C(=O)N[C@@H](Cc1c[nH]cn1)C(=O)N[C@@H](CC(N)=O)C(=O)N[C@@H](CCCNC(=N)N)C(=O)N[C@H](C(=O)N1CCC[C@H]1C(=O)N[C@@H](CCC(=O)O)C(=O)O)[C@@H](C)O)[C@@H](C)O` [Angio-3] (H-TPHTHNRTPE-OH) here?
Answer: Its value is “more potent”.

Question: And the “inhibition of BAE cell proliferation (in words)” value ([1]; bFGF 1 ng/ml, 72 h)?
Answer: The value was “inhibited BAE cell proliferation in a dose-dependent manner”.

Question: And the “inhibition of chick CAM angiogenesis (FIG. 3, 4)” value ([2]; 4 day embryo, 120 ug/cover slip)?
Answer: Its value is “Inhibition of chick CAM angiogenesis”.

Question: What about the “dose that reduced microvessel density (lowest dose tested)” value ([2]; compared to PBS control) of the same compound?
Answer: The value was 12 pg/cover slip.

Question: And the “potency relative to angiostatin in inhibiting chick CAM angiogenesis” value ([2]; estimated from 100 ug angiostatin vs 1.2 ug peptide)?
Answer: The value was “at least as potent as angiostatin”.

Question: What about the “amount giving inhibition equivalent to 100 ug recombinant angiostatin” value ([2]; judged from reduction in microvessel density) of the same compound?
Answer: The value was 1.2 µg.

Question: And the “inhibition of chick CAM angiogenesis (in words)” value ([2]; peptide on cover slip, compared to PBS control)?
Answer: The value was “inhibited chick CAM angiogenesis”.
